According to PubChem BioAssay (NCATS):
The shares of active, inactive and inconclusive entries below differ from those in the screen. For part of these data: Potencies beside an inconclusive call are fits to weak or partial responses and may not hold up. Activity calls are given as the source filed them. Calls follow the shape of the dose curve; as a rule, active = well fitted curve in the direction sought with a large enough effect; inconclusive = small, poorly fitted or top-dose-only effect, or another doubt; inactive = no such curve, though single readings can be large; an effect the other way counts as inactive or inconclusive.

Legend:
[1] = system: NAD(P)H diaphorase (Clostridium kluyveri); test: Diaphorse counterscreen qHTS: Assay Interference Panel against the NCATS CANVASS Library (AID 1347362); also: potency is read from the fitted curve at half-maximal effect; as to activity change, negative = inhibition: 0% is about no effect
Summary of the method: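 Counterscreen for coupling-enzyme interference: resorufin fluorescence from resazurin/NADH turnover, read after 5 min at room temperature. Compounds were tested over an 11-point series after 15 min dark preincubation with diaphorase in PBS-Tween.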

[2] = J3T Cancer Cell Toxicity qHTS against the NCATS CANVASS Library (AID 1347371);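 also: J3T is a canine glioma cancer cell line seeded at 500 cells per well; % is scaled to controls: 0 for no effect and ±100 for the full control effect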
Summary of the method: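 Viability of the J3T glioma line from dog is scored by ATP luminescence after a 72 hr incubation with natural products.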

[3] = qHTS for Hypoxia signaling pathway (HIF-1) antagonists against the NCATS CANVASS Library (AID 1347374); also: potency is read from the fitted curve at half-maximal effect; nearly all actives have a fitted effect of over 60% in size
Summary of the method: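 HRE-bla ME-180 cells (2,000/well, 0.5% dialyzed FBS) were pre-incubated 5 h, then given an 11-point compound series plus CoCl2 (60 uM solution as added) for 17 h at 37C. CCF4 β-lactamase read (ex 405, em 460/530 nm) after 2 h at RT.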

[4] = qHTS for H2AX Agonists against the NCATS CANVASS Library (AID 1347378);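 also: phospho-H2AX S139 level in CHO-K1 lysates by TR-FRET emission ratio; potency is read from the fitted curve at half-maximal effect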
Summary of the method: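 CHO-K1, 1000 cells/well, o/n 37C; cpd several conc, 3 hr 37C, 0.76% DMSO; lyse 30 min RT; cryptate anti-pH2AX(S139) + d2 anti-H2AX, 24 hr RT; HTRF 665/620.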

[5] = qHTS for Inflammasome Signaling Inhibitors: IL-1-beta AlphaLISA screen against the NCATS CANVASS Library (AID 1347379);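 also: human THP-1 cells primed with LPS then triggered with ATP; secreted IL-1B measured as AlphaLISA emission at 615 nm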; also: potency is read from the fitted curve at half-maximal effect;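 as to activity change, negative = inhibition: % is scaled to controls: 0 for no effect and ±100 for the full control effect; lower signal means less IL-1B release which is the wanted effect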
Summary of the method: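 Human THP-1 cells were pretreated 1 hr at 37 °C with compounds (up to 57.5 uM final), then stimulated with LPS (250 ng/mL final) and ATP (1.25 mM final). Secreted IL-1B was read by AlphaLISA after 16 hr.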

[6] = Secretion counterscreen for inhibitors of the SERCaMP assay screened against the NCATS CANVASS Library (AID 1347390); conditions: SH-SY5Y constitutive GLuc secretion, luminescence, 20 h; activity change, negative = inhibition: at 76.6 µM (top of the series);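 also: light from luciferase secreted into medium read as a measure of general secretion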; also: potency is read from the fitted curve at half-maximal effect; as to activity change, negative = inhibition: % is scaled to controls: 0 for no effect and ±100 for the full control effect
Summary of the method: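 SH-SY5Y-GLuc STOP cells; 4 h attach; cpds 0.001 - 77 uM (qHTS, 11 pts), 20 h 37C/5% CO2; coelenterazine in glow buffer; luminescence, 5 s exposure.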

[7] = qHTS for inhibitors of ER calcium dysfunction: SERCaMP assay screened against the NCATS CANVASS Library (AID 1347393); conditions: SH-SY5Y GLuc-SERCaMP secretion, thapsigargin, luminescence; activity change, negative = inhibition: at 76.6 µM (top of the series) unless noted; also: potency is read from the fitted curve at half-maximal effect; nearly all actives have a fitted effect of over 40% in size
Summary of the method: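 Thapsigargin-induced ER calcium depletion drives GLuc-SERCaMP secretion from SH-SY5Y cells; compounds given 16 h beforehand were scored by lowered coelenterazine luminescence after 4 h challenge.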

[8] = qHTS for inhibitors of Wild type Zika virus screened against the NCATS CANVASS Library (AID 1347396); also: potency is read from the fitted curve at half-maximal effect
Summary of the method: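 Luminescent CellTiter Glo read-out of virus-induced cytotoxicity, 72 h post-infection, in Vero 766 cells. Compounds were tested at 11 concentrations; uninfected, vehicle-treated wells defined 100% inhibition.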

[9] = UWB1.289 Cancer Cell Toxicity qHTS against the NCATS CANVASS Library (AID 1347347); also: nearly all actives have a fitted effect of over 60% in size; also: potency is read from the fitted curve at half-maximal effect; as to activity change, negative = cytotoxicity: % is scaled to controls: 0 for no effect and ±100 for the full control effect
Summary of the method: (§1)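 1000 cells/well; 4 h settle; 11-pnt titration; 72 h, 37 degrees C, 5% CO2; CellTiter-Glo, 15min RT; luminescence read.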

[10] = Panc-1005 Cancer Cell Toxicity qHTS against the NCATS CANVASS Library (AID 1347349); also: nearly all actives have a fitted effect of over 60% in size; also: potency is read from the fitted curve at half-maximal effect; as to activity change, negative = cytotoxicity: % is scaled to controls: 0 for no effect and ±100 for the full control effect
Summary of the method: as §1

[11] = A2780 Cisplatin Sensitive Ovarian Cancer Cell Toxicity qHTS against the NCATS CANVASS Library (AID 1347353); also: nearly all actives have a fitted effect of over 60% in size
Summary of the method: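 Seventy-two-hour exposure of cisplatin-sensitive A2780 ovarian cells to an 11-concentration qHTS series; cytotoxicity is inferred from loss of ATPLite luminescence. Bortezomib titration served as positive control.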

[12] = HEK-293 Cancer Cell Toxicity qHTS against the NCATS CANVASS Library (AID 1347355); also: nearly all actives have a fitted effect of over 65% in size; also: potency is read from the fitted curve at half-maximal effect
Summary of the method: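 qHTS cytotoxicity: compounds tested in 11 concentrations on 1000 seeded cells per well over 72 h; bortezomib served as control; signal from CellTiter-Glo luminescence.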

[13] = HPAF-II 12hr Apoptosis Induction qHTS against the NCATS CANVASS Library (AID 1347358); also: 0% is about no effect
Summary of the method: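 Apoptosis in HPAF-II pancreatic cancer cells is scored as caspase 3/7 luminescence following a 12-hour exposure to an 11-point compound series.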

[14] = SDT Cancer Cell Toxicity qHTS against the NCATS CANVASS Library (AID 1347365)
Summary of the method: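 Dispense 500 SDT cells per well; pin-transfer compounds; incubate 72 hr at 37C, 5% CO2, 95% RH; add CellTiterGlo and read luminescence.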

[15] = KB-3-1 Cancer Cell Toxicity qHTS against the NCATS CANVASS Library (AID 1347366); also: nearly all actives have a fitted effect of over 75% in size; also: potency is read from the fitted curve at half-maximal effect
Summary of the method: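 Luminescence from CellTiter-Glo (10 min, room temperature) measured KB-3-1 viability after 72 hr compound exposure at 37C. Cells were seeded at 500/well and tested in an 11-point series.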

[16] = G06 Cancer Cell Toxicity qHTS against the NCATS CANVASS Library (AID 1347368)
Summary of the method: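 Cytotoxicity toward canine glioma G06 cells is scored from cellular ATP via luminescence after 72 hr compound exposure at 500 cells/well.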

[17] = MCF7 Cancer Cell Toxicity qHTS against the NCATS CANVASS Library (AID 1347369); conditions: activity change, negative = cytotoxicity: at 46 µM (top of the series); also: potency is read from the fitted curve at half-maximal effect
Summary of the method: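 Cells seeded at 500/well, then compound pinned. Plates incubated 72 hr at 37C, 5% CO2. CellTiterGlo added; luminescence read.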

[18] = DH5-alpha competent E. coli microbial cell viability qHTS against the NCATS CANVASS Library (AID 1347377); conditions: viability signal change, negative = cytotoxic: at 46.1 µM (top of the series); as to viability signal change, negative = cytotoxic: 0% is about no effect
Summary of the method: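 Cell viability of competent DH5-alpha E. coli is scored from ATP content by luminescence. Cells sit overnight at 37C with compound across an 11-point concentration series.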

[19] = qHTS for Antimalaria activity screened against the NCATS CANVASS Library (AID 1347380); also: potency is read from the fitted curve at half-maximal effect; nearly all actives have a fitted effect of over 40% in size
Summary of the method: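 Growth inhibition of asexual erythrocytic P. falciparum Dd2 was quantified by SYBR Green DNA staining. Cultures grew 72 h with compound (11-point series) in hypoxic gas at 37C; lysis and staining lasted 18 h.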

[20] = qHTS for activators of Nrf2/ARE signaling pathway screened against the NCATS CANVASS Library (AID 1347391)
Summary of the method: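 Cells carrying an ARE-driven beta-lactamase reporter (HepG2 background) are dosed for 16 h, then stained with CCF4. Cell viability in the same wells is measured by CellTiter-Glo luminescence.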

[21] = Viability qHTS for inhibitors of the SERCaMP assay screened against the NCATS CANVASS Library (AID 1347400); also: nearly all actives have a fitted effect of over 70% in size; also: potency is read from the fitted curve at half-maximal effect
Summary of the method: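 Cytotoxicity counter-screen: ATP content (CellTiter-Glo luminescence) of SH-SY5Y-GLuc SERCaMP MJH297 cells after 48 h at 37C with compounds in an 11-point qHTS series.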

[22] = SW1088 Cancer Cell Toxicity qHTS against the NCATS CANVASS Library (AID 1347350); also: potency is read from the fitted curve at half-maximal effect; nearly all actives have a fitted effect of over 75% in size
Summary of the method: as §1

[23] = U-118MG Cancer Cell Toxicity qHTS against the NCATS CANVASS Library (AID 1347351); also: potency is read from the fitted curve at half-maximal effect
Summary of the method: as §1

[24] = KB-8-5-11 Cancer Cell Toxicity qHTS against the NCATS CANVASS Library (AID 1347364); conditions: activity change, negative = toxicity: at 46.1 µM (top of the series); also: potency is read from the fitted curve at half-maximal effect; nearly all actives have a fitted effect of over 75% in size
Summary of the method: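 Natural products were titrated in 11 points onto KB-8-5-11 cells, 500 per well, and cytotoxicity was scored from CellTiter-Glo luminescence after 72 hr culture.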

[25] = qHTS for ATAD5 Antagonist screened against the NCATS CANVASS Library (AID 1347370); also: potency is read from the fitted curve at half-maximal effect; nearly all actives have a fitted effect of over 65% in size
Summary of the method: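 HEK293T cells with a stably integrated ATAD5-controlled luciferase reporter were exposed to compounds (11-pt) alongside 10 uM 5-fluorouridine as ATAD5 stabilizer for 16hr at 37C. Viability was read by CellTiter-Fluor fluorescence, then ATAD5 by luminescence.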

[26] = Inflammasome Signaling qHTS Counterscreen: IL-1-beta AlphaLISA counterscreen against the NCATS CANVASS Library (AID 1347381)
Summary of the method: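 To flag interference with the AlphaLISA read-out, a known amount of purified IL-1-beta (4 pg) replaced cell supernatant. Detection used anti-IL-1-beta acceptor beads, biotinylated antibody and streptavidin donor beads at room temperature.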

[27] = qHTS for Activators of p53 Stress Response Pathway screened against the NCATS CANVASS Library (AID 1347388); also: potency is read from the fitted curve at half-maximal effect
Summary of the method: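 Beta-lactamase reporter driven by p53 response elements in HCT-116 cells, read as the 460 nm/530 nm emission ratio after CCF4 loading, following 16 h of exposure to an 11-point series. Cell viability was measured in the same wells by CellTiter-Glo luminescence.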

[28] = qHTS assay for small molecule disruptors of mitochondrial membrane potential screened against the NCATS CANVASS Library (AID 1347389)
Summary of the method: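 Compounds tested in 11-point qHTS series on HepG2 cells for 1 hr; membrane-potential dye added for 30 min at 37C. Lower red-to-green ratio indicates loss of potential.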

[29] = Redox Reaction Profiling qHTS: Assay Interference Panel against the NCATS CANVASS Library (AID 1347401); also: potency is read from the fitted curve at half-maximal effect
Summary of the method: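 Cell-free redox surrogate: 5 uM resazurin + 200 uM DTT, 50 mM HEPES pH 7.3/50 mM NaCl; cpds pinned, 11-pt qHTS; Ex525/Em598 read t0 and t=15 min, dark.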

O=C1c2c(O)cc(O)cc2OC(c2ccc(O)cc2)C1O (stereo not given)
inconclusive: Potency [3] 23.6 µM [inhibitor, partial curve, poor fit] | Potency [4] 54.5 µM [activator, single point] | activity change, negative = inhibition [6] -31.5% [inhibitor] | Potency [7] 60.9 µM [inhibitor, partial curve, poor fit]
inactive: Potency [1] | Potency [2] | Potency [5] | Potency [8]

O=Cc1ccc2n1C[C@@]1(C[C@H](O)[C@@H](CO)O1)OC2
inactive: Potency [9] | Potency [10] | Potency [11] | Potency [12] | Potency [5]

C=C1/C=C\C(CCC)=C\c2csc(n2)C(C)NC(=O)C[C@@]2(CC(=O)O)CCC(=C)[C@H](C1)S2 (stereo not given in full)
inactive: Potency [13] | Potency [15] | Potency [16] | Potency [17] | Potency [18] | Potency [21]
inconclusive: Potency [14] 4.18 µM [cytotoxic, full curve] | Potency [19] 0.0019 µM [cytotoxic, full curve] | Potency [20] 29.5 µM [activator, partial curve, poor fit]

O[C@H]1c2ccccc2-c2c3c(cc4c2[C@@H]1NCC4)OCO3
inactive: Potency [13]
inconclusive: Potency [9] 21.1 µM [cytotoxic, single point] | Potency [10] 23.7 µM [cytotoxic, single point] | Potency [22] 29.8 µM [cytotoxic, single point] | Potency [23] 29.8 µM [cytotoxic, single point] | Potency [12] 33.2 µM [cytotoxic, single point] | Potency [1] 21.6 µM [inhibitor, partial curve] | Potency [24] 37.2 µM [cytotoxic, single point] | Potency [15] 29.6 µM [cytotoxic, single point] | Potency [25] 18.6 µM [inhibitor, partial curve] | Potency [18] 23.4 µM [rising, partial curve] | Potency [19] 0.0067 µM [cytotoxic, full curve, poor fit] | Potency [26] 17.2 µM [inhibitor, partial curve, poor fit] | Potency [28] 10.5 µM [inhibitor, partial curve] | Potency [6] 0.0027 µM [inhibitor, single point] | Potency [7] 5.43 µM [inhibitor, full curve] | Potency [8] 26.1 µM [inhibitor, single point]
active: Potency [17] 29.4 µM | Potency [3] 18.8 µM | Potency [5] 24.3 µM | Potency [27] 13.2 µM | Potency [21] 38.1 µM | Potency [29] 19.2 µM
